Article doi:10.1101/2019.12.16.876623 (bioRxiv, 2019)
Positions count from the first letter of the chain named. These are yes or no findings as the source states them, for the method shown. For some of these results: In cells and extracts the contact can be indirect. Some results given as binding are weak or reduced against the parent protein; the word gives no strength. Sequences can lack the tags named with a protein.

Legend:
[1] = target: T1, GAL4-BD-Exo1 (S. cerevisiae) (UniProt P39875); test: two-hybrid
T1 sequence: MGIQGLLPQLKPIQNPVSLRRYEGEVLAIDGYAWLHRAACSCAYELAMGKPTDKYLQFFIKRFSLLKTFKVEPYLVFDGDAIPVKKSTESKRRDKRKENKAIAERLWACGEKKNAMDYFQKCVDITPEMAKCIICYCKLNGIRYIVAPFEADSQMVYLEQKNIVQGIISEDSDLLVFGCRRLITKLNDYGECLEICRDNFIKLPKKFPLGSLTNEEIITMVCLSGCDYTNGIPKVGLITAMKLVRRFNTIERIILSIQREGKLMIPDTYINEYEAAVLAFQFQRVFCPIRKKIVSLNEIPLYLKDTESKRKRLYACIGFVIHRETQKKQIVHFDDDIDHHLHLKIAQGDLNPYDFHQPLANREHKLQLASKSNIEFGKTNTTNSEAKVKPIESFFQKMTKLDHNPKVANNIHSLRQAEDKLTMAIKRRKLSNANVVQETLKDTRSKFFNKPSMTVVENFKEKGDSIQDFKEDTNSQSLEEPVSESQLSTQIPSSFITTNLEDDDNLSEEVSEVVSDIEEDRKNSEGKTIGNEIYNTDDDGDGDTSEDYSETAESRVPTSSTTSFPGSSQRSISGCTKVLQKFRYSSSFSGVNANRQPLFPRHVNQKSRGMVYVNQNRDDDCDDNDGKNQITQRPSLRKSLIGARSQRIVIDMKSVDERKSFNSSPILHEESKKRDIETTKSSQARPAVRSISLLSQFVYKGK

[2] = target: T2, GAL4-BD-Exo1 (531 to 591) (S. cerevisiae) (UniProt P39875); test: two-hybrid
T2 sequence: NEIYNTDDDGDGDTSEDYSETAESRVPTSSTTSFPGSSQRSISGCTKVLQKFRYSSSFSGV

[3] = target: T3, GAL4-BD-Exo1-cid (R570E I572D G574A) (S. cerevisiae) (UniProt P39875); test: two-hybrid
T3 sequence: T1 sequence with R570E, I572D, G574A

Exo1-TAP (S. cerevisiae) = target: T4, Exo1-TAP (S. cerevisiae) (UniProt P39875); test: co-IP
T4 sequence: T1 sequence

Msh4-TAP (S. cerevisiae) = target: T5, Msh4-TAP (S. cerevisiae) (UniProt P40965); test: co-IP
T5 sequence: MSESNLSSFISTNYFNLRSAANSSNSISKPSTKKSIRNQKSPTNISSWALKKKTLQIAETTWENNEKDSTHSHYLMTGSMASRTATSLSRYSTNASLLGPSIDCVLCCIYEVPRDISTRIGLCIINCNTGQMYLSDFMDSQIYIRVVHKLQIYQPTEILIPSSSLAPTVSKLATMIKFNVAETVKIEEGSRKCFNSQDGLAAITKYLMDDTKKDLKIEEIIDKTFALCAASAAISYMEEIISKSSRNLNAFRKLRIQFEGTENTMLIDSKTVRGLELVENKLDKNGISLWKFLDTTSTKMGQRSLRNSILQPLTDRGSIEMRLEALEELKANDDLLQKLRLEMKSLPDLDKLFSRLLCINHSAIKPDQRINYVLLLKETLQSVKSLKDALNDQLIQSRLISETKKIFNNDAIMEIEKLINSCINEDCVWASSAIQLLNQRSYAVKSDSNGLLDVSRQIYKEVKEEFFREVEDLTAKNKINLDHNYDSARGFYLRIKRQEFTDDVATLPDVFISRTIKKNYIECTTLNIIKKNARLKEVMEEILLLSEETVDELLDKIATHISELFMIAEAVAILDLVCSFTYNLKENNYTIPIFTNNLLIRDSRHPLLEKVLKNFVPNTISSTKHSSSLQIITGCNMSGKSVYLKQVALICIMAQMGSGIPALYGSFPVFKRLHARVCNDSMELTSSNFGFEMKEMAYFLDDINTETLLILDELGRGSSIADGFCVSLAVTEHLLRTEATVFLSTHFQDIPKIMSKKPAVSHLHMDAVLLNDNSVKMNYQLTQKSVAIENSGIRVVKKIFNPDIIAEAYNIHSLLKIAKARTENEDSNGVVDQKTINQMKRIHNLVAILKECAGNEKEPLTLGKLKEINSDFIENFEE

Cdc5-TAP (S. cerevisiae) = target: T6, Cdc5-TAP (S. cerevisiae) (UniProt P32562); test: co-IP
T6 sequence: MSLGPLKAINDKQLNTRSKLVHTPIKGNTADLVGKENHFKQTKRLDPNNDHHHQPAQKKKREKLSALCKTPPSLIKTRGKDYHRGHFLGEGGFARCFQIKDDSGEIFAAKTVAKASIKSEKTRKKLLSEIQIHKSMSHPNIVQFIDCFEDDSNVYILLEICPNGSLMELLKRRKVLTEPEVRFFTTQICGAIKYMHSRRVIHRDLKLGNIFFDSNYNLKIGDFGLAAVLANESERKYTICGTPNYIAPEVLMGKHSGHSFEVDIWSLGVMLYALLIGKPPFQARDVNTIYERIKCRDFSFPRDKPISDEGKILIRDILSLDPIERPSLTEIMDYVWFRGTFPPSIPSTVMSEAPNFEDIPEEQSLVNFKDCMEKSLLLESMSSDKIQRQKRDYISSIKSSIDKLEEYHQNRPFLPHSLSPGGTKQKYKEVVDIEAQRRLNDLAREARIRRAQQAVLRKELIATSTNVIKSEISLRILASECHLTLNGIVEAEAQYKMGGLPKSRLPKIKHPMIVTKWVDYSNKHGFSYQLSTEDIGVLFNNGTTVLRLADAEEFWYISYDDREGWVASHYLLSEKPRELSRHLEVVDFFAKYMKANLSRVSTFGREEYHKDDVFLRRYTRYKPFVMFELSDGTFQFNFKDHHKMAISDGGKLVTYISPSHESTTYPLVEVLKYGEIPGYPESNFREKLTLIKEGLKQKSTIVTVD

[4] = target: Mlh3-Flag (Mlh3 with an internal His6-Flag3 tag) (S. cerevisiae) (UniProt Q12083); test: co-IP

B1: GAL4-AD-Cdc5-PBD (domain or fragment, UniProt P32562 340-705)
chain: TFPPSIPSTVMSEAPNFEDIPEEQSLVNFKDCMEKSLLLESMSSDKIQRQKRDYISSIKSSIDKLEEYHQNRPFLPHSLSPGGTKQKYKEVVDIEAQRRLNDLAREARIRRAQQAVLRKELIATSTNVIKSEISLRILASECHLTLNGIVEAEAQYKMGGLPKSRLPKIKHPMIVTKWVDYSNKHGFSYQLSTEDIGVLFNNGTTVLRLADAEEFWYISYDDREGWVASHYLLSEKPRELSRHLEVVDFFAKYMKANLSRVSTFGREEYHKDDVFLRRYTRYKPFVMFELSDGTFQFNFKDHHKMAISDGGKLVTYISPSHESTTYPLVEVLKYGEIPGYPESNFREKLTLIKEGLKQKSTIVTVD
binding [1]: binds | binding [2]: binds | binding [3]: no binding

B2: Mlh1-HA (protein, UniProt P38920 1-769)
chain: MSLRIKALDASVVNKIAAGEIIISPVNALKEMMENSIDANATMIDILVKEGGIKVLQITDNGSGINKADLPILCERFTTSKLQKFEDLSQIQTYGFRGEALASISHVARVTVTTKVKEDRCAWRVSYAEGKMLESPKPVAGKDGTTILVEDLFFNIPSRLRALRSHNDEYSKILDVVGRYAIHSKDIGFSCKKFGDSNYSLSVKPSYTVQDRIRTVFNKSVASNLITFHISKVEDLNLESVDGKVCNLNFISKKSISPIFFINNRLVTCDLLRRALNSVYSNYLPKGNRPFIYLGIVIDPAAVDVNVHPTKREVRFLSQDEIIEKIANQLHAELSAIDTSRTFKASSISTNKPESLIPFNDTIESDRNRKSLRQAQVVENSYTTANSQLRKAKRQENKLVRIDASQAKITSFLSSSQQFNFEGSSTKRQLSEPKVTNVSHSQEAEKLTLNESEQPRDANTINDNDLKDQPKKKQKLGDYKVPSIADDEKNALPISKDGYIRVPKERVNVNLTSIKKLREKVDDSIHRELTDIFANLNYVGVVDEERRLAAIQHDLKLFLIDYGSVCYELFYQIGLTDFANFGKINLQSTNVSDDIVLYNLLSEFDELNDDASKEKIISKIWDMSSMLNEYYSIELVNDGLDNDLKSVKLKSLPLLLKGYIPSLVKLPFFIYRLGKEVDWEDEQECLDGILREIALLYIPDMVPKVDTSDASLSEDEKAQFINRKEHISSLLEHVLFPCIKRRFLAPRHILKDVVEIANLPDLYKVFERC
binding (Exo1-TAP (S. cerevisiae)): binds | binding (Msh4-TAP (S. cerevisiae)): binds weakly | binding (Cdc5-TAP (S. cerevisiae)): binds

B3: Mlh3-Flag (Mlh3 with an internal His6-Flag3 tag) (protein, UniProt Q12083 1-715)
chain: MSQHIRKLDSDVSERLKSQACTVSLASAVREIVQNSVDAHATTIDVMIDLPNLSFAVYDDGIGLTRSDLNILATQNYTSKIRKMNDLVTMKTYGYRGDALYSISNVSNLFVCSKKKDYNSAWMRKFPSKSVMLSENTILPIDPFWKICPWSRTKSGTVVIVEDMLYNLPVRRRILKEEPPFKTFNTIKADMLQILVMHPMISLNVQYTDKLRINTEVLFRSKNITEGLTKHQQMSQVLRNVFGAIIPPDMLKKVSLKFNEYQIEGIISKMPVGLKDLQFIYINGRRYADSAFQGYVDSLFQAQDFGEKGMSLLKTKSVGKPYRSHPVFILDVRCPQTIDDLLQDPAKKIVKPSHIRTIEPLIVKTIRSFLTFQGYLTPDKSDSSFEIVNCSQKTATLPDSRIQISKRNQVLNSKMKIARINSYIGKPAVNGCRINNSTINYEKIKNIRIDGQKSRLRNKLSSRPYDSGFTEDYDSIGKTITDFSISRSVLAKYEVINQVDKKFILIRCLDQSNCPLLVLVDQHACDERIRLEELFYSLLTEVVTGTFVARDLKDCCIEVDRTEADLFKHYQSEFKKWGIGYETIEGTMETSLLEIKTLPEMLTSKYNGDKDYLKMVLLQHAHDLKDFKKLPMDLSHFENYTSVDKLYWWKYSSCVPTVFHEILNSKACRSAVMFGDELTRQECIILISKLSRCHNPFECAHGRPSMVPIAELK
binding [4]: no binding
